Results are given in words; binding and its absence hold for the method and conditions named. In cells and extracts the contact can be indirect. These calls come from enrichment with a bait or labelling near it, and not all partners need be listed. No binding means not detected with the bait. Where a sequence is shown, tags or fusion partners need not be part of it.

The test deals with T1, HA-tagged VAL1 (VAL1::VAL1-3xHA) (Arabidopsis thaliana) (UniProt Q8W4L5).
T1 sequence: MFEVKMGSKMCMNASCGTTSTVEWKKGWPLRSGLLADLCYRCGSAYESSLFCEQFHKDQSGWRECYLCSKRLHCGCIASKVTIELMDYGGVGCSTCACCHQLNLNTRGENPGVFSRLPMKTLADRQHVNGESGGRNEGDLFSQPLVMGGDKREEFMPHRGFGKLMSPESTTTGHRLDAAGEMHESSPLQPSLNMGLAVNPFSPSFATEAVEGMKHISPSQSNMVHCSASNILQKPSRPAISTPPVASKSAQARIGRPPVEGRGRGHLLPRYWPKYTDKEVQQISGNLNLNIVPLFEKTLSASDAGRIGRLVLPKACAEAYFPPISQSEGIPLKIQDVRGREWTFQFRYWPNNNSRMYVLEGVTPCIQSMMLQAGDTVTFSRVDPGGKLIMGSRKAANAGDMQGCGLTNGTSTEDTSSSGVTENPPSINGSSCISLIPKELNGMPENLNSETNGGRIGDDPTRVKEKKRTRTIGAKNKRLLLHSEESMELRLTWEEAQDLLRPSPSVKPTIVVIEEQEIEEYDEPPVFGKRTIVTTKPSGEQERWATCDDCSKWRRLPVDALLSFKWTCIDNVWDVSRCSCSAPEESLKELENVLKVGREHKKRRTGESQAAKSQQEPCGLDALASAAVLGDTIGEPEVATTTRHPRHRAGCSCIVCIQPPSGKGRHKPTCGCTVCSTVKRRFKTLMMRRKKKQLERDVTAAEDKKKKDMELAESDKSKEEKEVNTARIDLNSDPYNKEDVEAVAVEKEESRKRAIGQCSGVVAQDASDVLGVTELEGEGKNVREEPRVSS
The test can be described thus: affinity purification with mass spectrometry; anti-HA (Roche) on Dynabeads Protein A, overnight at 4°C in IP buffer (20mM Tris-HCl pH 8, 150mM NaCl, 2.5mM EDTA, 0.5% Triton); tissue of VAL1-HA; val1-2; FRI-Sf2 plants at 1, 2 and 3 weeks, val1-2; fri as control.

ATBMI1A: the binding entry was “binds”.

B1: chloroplast binding protein CRB (protein, UniProt Q9SA52 51-378)
chain: SSEKKILIMGGTRFIGLFLSRILVKEGHQVTLFTRGKSPIAKQLPGESDQDFADFSSKILHLKGDRKDYDFVKSSLSAEGFDVVYDINGREAEEVEPILEALPKLEQYIYCSSAGVYLKSDILPHCEEDAVDPKSRHKGKLETESLLQSKGVNWTSIRPVYIYGPLNYNPVEEWFFHRLKAGRPIPVPNSGIQISQLGHVKDLATAFLNVLGNEKASREIFNISGEKYVTFDGLAKACAKAGGFPEPEIVHYNPKEFDFGKKKAFPFRDQHFFASVEKAKHVLGWKPEFDLVEGLTDSYNLDFGRGTFRKEADFTTDDMILSKKLVLQ
In the case of B1, the binding entry is given as “no binding”.

The record behind these values is paper PMC8270478.
